In the experiment the target is T1, C-terminal HA-tagged GRA6 (mature, without signal peptide) (Toxoplasma gondii) (UniProt Q27003).
T1 sequence: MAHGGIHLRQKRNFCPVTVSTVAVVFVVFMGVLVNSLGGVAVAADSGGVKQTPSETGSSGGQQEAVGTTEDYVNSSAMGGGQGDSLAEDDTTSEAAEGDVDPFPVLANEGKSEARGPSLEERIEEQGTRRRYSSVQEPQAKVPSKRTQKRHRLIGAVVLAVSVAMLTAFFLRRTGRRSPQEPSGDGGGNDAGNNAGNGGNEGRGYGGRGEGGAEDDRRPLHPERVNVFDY
As to the kind of experiment: co-IP; HEK293T co-transfected with FLAG-ITCH (full-length or truncated) and HA-tagged GRA constructs; lysis in IP-lysis buffer B (25 mM HEPES, 150 mM NaCl, 1 mM EDTA, 1 mM EGTA, 0.65% NP40); anti-HA magnetic beads, 4°C overnight; immunoblotting.

Results are given in words; binding and its absence hold for the method and conditions named. Binding seen in cells or lysates may run through a third protein. Sequences can lack the tags named with a protein.

Consider “FLAG-tagged rat ITCH (FLAG-rITCH), full-length (enzyme)”, for which the binding entry is recorded as “no binding”.

Values taken from PMC10936166.
